Reference: patent US6635450
These are yes or no findings as the source states them, for the method shown. Some results given as binding are weak or reduced against the parent protein; the word gives no strength.

Sequences of proteins named here, by UniProt entry; tags and fusion partners are left off. A change or cut given only in a name is not applied to a line headed by its entry.
UniProt P30280: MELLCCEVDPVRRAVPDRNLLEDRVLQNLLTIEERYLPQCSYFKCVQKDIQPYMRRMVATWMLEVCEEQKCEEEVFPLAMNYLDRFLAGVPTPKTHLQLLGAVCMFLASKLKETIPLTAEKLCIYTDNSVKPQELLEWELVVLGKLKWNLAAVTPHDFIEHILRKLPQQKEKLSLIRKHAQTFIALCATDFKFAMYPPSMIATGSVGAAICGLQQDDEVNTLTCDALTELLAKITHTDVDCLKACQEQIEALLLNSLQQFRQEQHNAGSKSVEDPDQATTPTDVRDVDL
UniProt P46529: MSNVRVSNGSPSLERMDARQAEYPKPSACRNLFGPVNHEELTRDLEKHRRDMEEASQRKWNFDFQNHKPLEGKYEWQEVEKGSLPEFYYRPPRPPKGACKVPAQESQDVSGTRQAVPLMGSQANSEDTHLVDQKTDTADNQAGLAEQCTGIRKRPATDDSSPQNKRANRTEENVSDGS

Experiments:
[1] = target: cyclin D2-Cdk4 complex (baculovirus produced, co-infected Sf9 cells) (UniProt P30280); test: sequestering of p27 from heat treated lysates by cyclin D2-Cdk4
[2] = target: cyclin D2-Cdk4 complex (baculovirus produced, co-infected Sf9 cells) (UniProt P30280); test: anti-Cdk4 immunoprecipitation of supernatants of extracts that received cyclin D2-Cdk4
[3] = target: cyclin D2-Cdk4 complex (baculovirus produced, co-infected Sf9 cells) (UniProt P30280); test: anti-Cdk4 immunoprecipitation of 35S-labelled extracts that received cyclin D2-Cdk4, SDS-PAGE

Measured: binding

p27 protein, the 27 kD cyclin E-Cdk2 binding protein of Mv1Lu mink epithelial cells (endogenous) (from UniProt P46529 1-178)
binds: all assays above
